The values that follow come from PubChem BioAssay AID1508600 (Functional Genomics Laboratory (NCATS/FGL), 2020).

About 3,700 (7%) of roughly 53,000 sequences were called active.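 The calls were made as follows: active = gene knockdowns whose robust z-score for IL-1 alpha signal is at least 2 or at most -2, so actives lie on both sides; inactive = the rest.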 The list shows a part of the results.

The experiment can be described thus: Components of the Cytosolic LPS Sensing Pathway: Gene Identification via Genome-wide siRNA Screen.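 Also: robust z of the log signal after scaling to non-targeting control siRNA wells of the plate.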 Particulars: RAW264.7 macrophages, IL-1a HTRF, actives lie on both sides, screened at 100 nM (by protocol), cells primed 5 h with Pam3CSK4 first. The essentials: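 Three distinct siRNAs per gene were tested singly at 100 nM in RAW264.7 macrophages. Following Pam3CSK4 priming and 24 hour LipidA transfection, IL-1a secretion was read by HTRF.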
For orientation: Time-resolved FRET reads energy transfer from a long-lived donor to a nearby acceptor.
For GGGAAUAGUUUAUAUGGACTT against Ccl20, the z-score is inactive: 0.315.
GGUGAGUUUUGCUAAAAGUTT against Syp: the z-score is inactive: 0.783.
To GGAUGUGUGUGUCUCCUCATT against Prr9 belongs inactive: -0.256; to GGUCUAUUGAAAAAUAGGATT against Dock7, inactive: -0.0138; to GGCAACAGUUCACAAACCATT against Zfp263, inactive: -0.616.
GGAUAUCUAAUGUUAGAAGTT against Nim1k: the z-score is inactive: -0.556.
As to GGAUGAACACAAAGAACCCTT against Serpinb12, the z-score is inactive: -0.156.
As for GGUCACUGUAAUGAUUUAUTT against Klhdc1, the figure is inactive: 0.839; as for GGAAUACUUCCUGAAGGAATT against Ms4a3, inactive: 0.413; as for GCAGAAAGCACACUCCUACTT against Psors1c2, active: -2.02.
As for GGAUAUCGAGGAUGUACUGTT against Micu2, the figure is inactive: -0.339; as for CCAGAAACCAAUCUUUCUUTT against Serpinb1a, inactive: -0.0285; as for GCACAGGCUUAUGUUCCACTT against Vmn1r181, inactive: -0.695.
For GGUGUUUACCUGUGACGAGTT against Zbtb49, the z-score was inactive: -1.25.
As for GGAGUUUGAACAUAUGAAGTT against Rcn1, the figure is inactive: -0.417; as for GGAAUUGUUGUCAACAAUCTT against BC005537, inactive: 0.151.
As for GGUGGACGUACUUUUUAACTT against Gata3, the figure is active: 2.59; as for GGUUGUGAUGUGGUGGUCATT against Mdh2, inactive: 1.3; as for GGGCUUGAUUGUGAAAGAATT against Tlr12, inactive: -1.82.
Turning to CGAAAGUACCAUGCCUACATT against Clec5a, the z-score was inactive: 1.09.
As for CCUUCCCUAAGAUCAGGCGTT against Gsdma3, the figure is inactive: -0.287; as for GCACCGUUCAAGAAAUCGATT against Isoc1, inactive: 0.969; as for CCGAUUUCCACAUCUGUCATT against Fam104a, active: -2.45.
With GUAUUAUUCCGUUCCUACUTT against Olfr392, the z-score was inactive: 1.57.
Regarding CGAAAAACGACACGUAAAATT against Dnmt1, the z-score was inactive: -0.499.
As for CGUAAUGGAGACUACCGAATT against Syn1, the figure is inactive: 0.1; as for GGAGAGGAGAUUCAGUACATT against Otc, inactive: 0.768.
As for GGUAGAUUGCCAACAGUGCTT against Rap1a, the z-score was inactive: 0.952.
As for GUGGAAAACAAGUGGCGGUTT against Cox7c, the z-score is inactive: 0.241.
To GCCAUAUUGCUGUUUGCAATT against Cfap299 belongs inactive: -1.16; to GGCGUGUUUUUGGAGUGCCTT against Vps8, inactive: -1.48.
To GACCCUGUCCUACAUGUUATT against Rtl8c belongs inactive: -1.52.
Turning to GGCCAUGAUAGCUGUGUUUTT against Wdr6, the z-score is inactive: -0.469.
For GCGUAUUGAUAUAAGCUCUTT against Erc2, the z-score was inactive: -0.484.
As for GGGCAACCUGGUUACACAUTT against Zfp637, the figure is inactive: 1.25; as for GGCUGAAUGACUACGUGUGTT against Cldn14, inactive: 1.55; as for GGAAGAAAUGAUAAAUGCATT against Itgbl1, inactive: 0.747.
For GGUGGAAAGAUCAACAGACTT against Tpst1, the z-score was inactive: -1.31.
Take GGAAGUUAUUGCCAGCGAGTT against Fbxo5: the z-score was inactive: -0.418.
To GGAAUCAAUGGGAUAUUUUTT against Slc2a2 belongs inactive: 0.964; to GGCCUUUGCCAACAGGUCATT against Zfp27, inactive: 0.714; to CCAAACCAUAUGGAGAAGGTT against Stn1, inactive: -1.35.
To CCCUCAUGACAGCUUCGCATT against Wdr59 belongs inactive: -1.01; to CCAGGAAGAGAACUAUAAUTT against Tmem232, inactive: 0.721.
To CGAGAUGUGUGUUAAAGGATT against Utp23 belongs inactive: 0.934; to “CCACUUUCGCUUUACCAAUTT against C330011M18Rik”, inactive: 0.873; to GGAGGUCCAGCUGUUCAUGTT against Kcnn4, inactive: 0.464.
For GGAAACAACUUUCUAUAACTT against Vmn1r195, the z-score was inactive: -0.487.
In the case of CCAGAUUGGUGAUGGUAGUTT against Gm4425, the z-score was inactive: 1.19.
GGUAAUUAUCUUGUUGUCATT against Sacm1l: the z-score is inactive: -1.29.
To GCCCGUAUAGGUAUUGGUCTT against Mpg belongs active: 2.06; to GCCGGCCAGAAUAUACAUUTT against Fndc10, inactive: 0.415.
GGGACAAAUUGUCCAAAUGTT against Trpc4ap: the z-score is inactive: 1.47.
As to CCCAGUUAGUGAGACUUACTT against Gabrg3, the z-score was inactive: -1.29.
To CCUAGCUAUGCUUUUGGCATT against Fkbp4 belongs inactive: -1.43; to GCUGAUGGUAUAAAAGUAGTT against Glud1, inactive: 1.07; to GCACUUUAAUCUGGCUACCTT against Dnmt3b, inactive: -0.78.
As for “GGCCAUUUUUCUAGUGCUUTT against 1110038F14Rik”, the figure is inactive: -0.391; as for GGCAGUACCACUUGUCUUATT against Dynlt1b, inactive: -0.084.
As for GGCUGUGGACUCUGCAUGUTT against Wnk4, the figure is inactive: -1.01; as for “GCCAGUUCUAGAAAUACCATT against 8430429K09Rik”, inactive: 0.149; as for GGACUCCAAGUCGCUCGUATT against Armc9, inactive: 1.62.
Turning to GGGAACAGCAUGAAGGAAGTT against Krt78, the z-score is inactive: 0.688.
Consider GCAGGCUGCUCGAGAUAAATT against Dcp1a, for which the z-score is inactive: 1.02.
As for GCCAACAAGCAUUCCAUUGTT against Mrap, the figure is inactive: -0.991; as for GCUGAUUAACCCUCAGUAUTT against Gpc6, inactive: -0.531; as for GGUAGUGUCUGUAUUCUACTT against Olfr508, inactive: -1.12.
To GGGUGUCUUCUUGAACUGGTT against Lrit2 belongs inactive: 0.914; to GGGAUAAAUAUGAAGAAAGTT against Tacc2, inactive: -1.46.
In the case of “GCUGGAAAGUAGUUCAGUGTT against 4930583K01Rik”, the z-score is inactive: 1.47.
With GCUCGAAAUGACGUGUACATT against Gnl1, the z-score was inactive: 0.858.
Consider GCACAUGCCAUACAACCAUTT against Fads1, for which the z-score is inactive: 0.655.
To ACGACCUAUACCUCAGACCTT against Cebpd belongs inactive: -0.0955.
As for GGAUUGUCAGAGAAAGAGATT against Syt3, the figure is inactive: -0.751; as for CCAUUGAGGCUACGAAAGCTT against Nefl, inactive: 0.587.
To GGAAACUUAAAGUGAAGGATT against Rbm28 belongs inactive: 0.398.
Take GCUUUUUCUCUUUGCACUGTT against Olfr826: the z-score was inactive: 0.791.
To GGCCUGGUAAAGUUAGUAATT against Wdr20rt belongs inactive: 0.615; to GGAAACUUAUCCCUACUCATT against Tal2, inactive: -0.386; to GUCUAUCUUCAGCACAAACTT against Klrc3, active: 2.12.
In the case of GGAUUUUUCAACUUAACGUTT against Get4, the z-score is inactive: 1.6.
As for GCAAAUCACCUACAAAAACTT against Zfp326, the figure is inactive: -1.02; as for GGAAAACAUUUAAACAGUGTT against Psmb11, inactive: 0.593; as for GGAAAUGAGAGCAUCCAUUTT against Cndp2, inactive: -1.37.
Regarding GCACGGAAUUGUUGAGCUGTT against Maff, the z-score was inactive: 0.0434.
As for GUGCUCUAUGUCUUCACUGTT against Ltb4r2, the figure is inactive: -1; as for “GGUGUCCGUAAAUGGAGUGTT against A430033K04Rik”, inactive: 0.809.
To CGGAUAUUUACGAACUUACTT against Pitpnb belongs inactive: 1.24; to GCACUUCGCGCAGUCUUCUTT against Zfp865, inactive: -1.49; to GCACCAGUUCUACUUCACCTT against Fpr2, inactive: 0.45.
To GGAGAACUGAAGAAUCCAATT against Med11 belongs inactive: 1.78; to GGAGGAACUGAUCUUUCGATT against Gdnf, inactive: 1.15; to GAAGAUGGUAGAGUCUACATT against Hcst, inactive: -0.849.
Take GCUGCAGAGAAGAGCAAUGTT against Olfr872: the z-score was inactive: -0.0504.
To CGUAUUGAUGUUGGGUAGCTT against Oas1c belongs inactive: 0.552; to CAGGAUUCCUUGGACAUACTT against Olfr477, inactive: -0.559.
To GGUGGAAUGAGGAAACAACTT against Cck belongs inactive: -0.945; to GCUUAAAUCCGACGAGAAGTT against Rrm2b, inactive: -1.12.
Take GGUGAUGAUGUCAUACAAATT against Cav1: the z-score was active: 3.12.
To GGUUCGUAUUCUCUUGGUGTT against Ifi44l belongs inactive: -0.701; to GGUUACCUAUUGGAUGACATT against Muc19, inactive: -1.43.
For GGAAUUUAGAAAAUGUGACTT against Vmn1r227, the z-score is active: -2.67.
To GCUUGACAUGUCCUCAGAGTT against Lsm14b belongs inactive: 0.568; to GGCUAGUGUUUUCAACAAUTT against Atp10d, inactive: -1.03.
To GGAGAAUGUAGAUGAAGCUTT against Dhrs2 belongs inactive: 0.179; to GGGUAUUGCUGGACAACGUTT against Col1a1, active: 3.85; to GGUCCAUUGCUAAAGACUGTT against Tcf19, inactive: 0.0971.
